Results as given in publication PMC11069428.

Key:
[1] = test system: GST-MabHLH28 (banana (Musa)); test: competition with a labelled probe; conditions: unlabelled mutant 200x/1000x; Chemiluminescent EMSA kit (Thermo) per manufacturer; pH and temperature not stated; recombinant protein; protein details: GST (N-terminal, pGEX-4T-1); label: 3' biotin, unlabelled as competitor
[2] = test system: GST-MabHLH28 (banana (Musa)); test: EMSA; conditions: Chemiluminescent EMSA kit (Thermo) per manufacturer, pH and temperature not stated, recombinant protein, protein details: GST (N-terminal, pGEX-4T-1), label: 3' biotin
[3] = test system: GST-MaWRKY49C (banana (Musa)); test: EMSA; conditions: Chemiluminescent EMSA kit (Thermo) per manufacturer; pH and temperature not stated; recombinant protein; protein details: GST (N-terminal, pGEX-4T-1); label: 3' biotin
[4] = test system: GST-MaWRKY111 (banana (Musa)); test: EMSA; conditions: Chemiluminescent EMSA kit (Thermo) per manufacturer; pH and temperature not stated; recombinant protein; protein details: GST (N-terminal, pGEX-4T-1); label: 3' biotin

Sequence | binding result [1] | binding result ([2]; unlabelled as competitor) | binding result [2] | also measured
GCTTTTGTTACCGCAAAAAAAAAATTAAAAAAAAAAGTGGGTCGACGCAT (double strand) [MaEXPA15 mprobe] | no binding | binds more weakly | – | –
TTTCTTGACTCAACTGCAGGCAGTCAAAACGAAGAACTTTGGTCAGTAAG (double strand) [MaEXPA15 W-box probe] | – | – | – | binding result [3]: binds; binding result [4]: binds
GGCAGCCCGGAATAAAAAAAAAACCTCAAAAAAAAAAGGGACAGTCCGTA (double strand) [MaEXP1 mprobe] | no binding | binds more weakly | – | –
CGCAGGTCTTATAGTTGCGTGAAGTCAACGTAGACTAAACGCCCAACACA (double strand) [MaEXP2 W-box probe] | – | – | – | binding result [3]: binds; binding result [4]: binds
TCAGCGAAAAAAAAAATGCGTCGTTTGTCATGAAAAAAAAAAAATGTATA (double strand) [MaPE1 mprobe] | no binding | binds more weakly | – | –
TCAGCGTTCACATGCATGCGTCGTTTGTCATGAAACCACGTGGATGTATA (double strand) [MaPE1 probe] | – | – | binds | –
TAACTTAGGACAGTAACATGAAAAAAAAAAATTGGTAGTACTTGTGTACC (double strand) [MaPG3 mprobe] | no binding | binds more weakly | – | –
GAGGATTTGGAAAAAAAAAACATGTTGCAAAAAAAAAAAAACCTACTGCT (double strand) [MaPL8 mprobe] | no binding | binds more weakly | – | –
TAACTTAGGACAGTAACATGGCCATGTGATATTGGTAGTACTTGTGTACC (double strand) [MaPG3 probe] | – | – | binds | –
TTCTCTTCCACTACCAGCACAAAAAAAAAAAAATCCGGTTCACTCCGCCC (double strand) [MaGWD1 mprobe] | no binding | binds more weakly | – | –
GCTGGATGGAGCCTTTTTCCTTGGTCAATTATACGAATGAATGAATGGCT (double strand) [MaLSF2 W-box probe] | – | – | – | binding result [3]: binds; binding result [4]: binds
TAAAAAAAAAAGGTTAAGCCCGAAATATTAGAACTCGACAAAAAAAAAAC (double strand) [MaLSF2 mprobe] | no binding | binds more weakly | – | –
CTGCCGCGAGAGAGTCAAAGACGGTGGGTAAGTTTGACCCATCCTTTCCG (double strand) [MaEXP1 W-box probe] | – | – | – | binding result [3]: binds; binding result [4]: binds
GCTCTGCGGCCGAAAGCCATCCCATGTGCTGTGCAGTGCCGTGAACACCC (double strand) [MaPL5 probe] | – | – | binds | –
TTCTGACTCTAATTAACGAGTCCTTAATGTTGTGGACTTATAAGTCAAAC (double strand) [MaPL8 W-box probe] | – | – | – | binding result [3]: binds; binding result [4]: binds
CATGTTCATGCCTCTGATGTTTTTGACTGACAGCTGTGTTGCTTGACATC (double strand) [MaPG3 W-box probe] | – | – | – | binding result [3]: binds; binding result [4]: binds

Sequence | binding result [1] | binding result ([2]; unlabelled as competitor) | binding result [2] | also measured
GGCAGCCCGGAATAGCATGTGCTCCTCCTCACATGGTGGGACAGTCCGTA (double strand) [MaEXP1 probe] | – | – | binds | –
GAGGATTTGGCGCACGAGGTCATGTTGCATGCATGTGCAAACCTACTGCT (double strand) [MaPL8 probe] | – | – | binds | –
TGGCAATTTGGAAGTGCTGACACACGTGTTCATTATTAGACTCATTGTTT (double strand) [MaEXPA2 probe] | – | – | binds | –
AAGTCTCACCTCTCACGCCACGCACGAGTCACAAGTCATCTCCCTTTCTG (double strand) [MaEXP2 probe] | – | – | binds | –
AAGTCTCACCTCTCACGCCAAAAAAAAAAAACAAGTCATCTCCCTTTCTG (double strand) [MaEXP2 mprobe] | no binding | binds more weakly | – | –
GAATATGCTTGCCGCTTTCATGTGATCAATTGAATTGTTTGCTTGCTTCA (double strand) [MaACO1 probe] | – | – | binds | –
GACCTCCGTCAGACTCCTTTAACATATGTTAAACAACTTGAATCTAATTT (double strand) [MaACS1 probe] | – | – | binds | –
GCTTTTGTTACCGCGGCATGTGGCTTCCCATGTGCGGTGGGTCGACGCAT (double strand) [MaEXPA15 probe] | – | – | binds | –
GCTCTGCGGCCGAAAGCCATAAAAAAAAAAGTGCAGTGCCGTGAACACCC (double strand) [MaPL5 mprobe] | no binding | binds more weakly | – | –
TATCACGTGCGGGTTAAGCCCGAAATATTAGAACTCGACGACATGTGCTC (double strand) [MaLSF2 probe] | – | – | binds | –
ACCTATGAGAATAGCCTTAAAAAGTCAATGTGAGCTTTAGAACCAACGT / TACGTTGGTTCTAAAGCTCACATTGACTTTTTAAGGCTATTCTCATAGGT [MaEXPA2 W-box probe] | – | – | – | binding result [3]: binds; binding result [4]: binds
TGGCAATTTGGAAGTGCTGAAAAAAAAAAACATTATTAGACTCATTGTTT (double strand) [MaEXPA2 mprobe] | no binding | binds more weakly | – | –
TTCTCTTCCACTACCAGCACACCACGTGGTAAATCCGGTTCACTCCGCCC (double strand) [MaGWD1 probe] | – | – | binds | –
CTTGAGGGCATGGTGGTTTGGTAGTCAAATCTACTAAAAGATGAACGGAG (double strand) [MaPL5 W-box probe] | – | – | – | binding result [3]: binds; binding result [4]: binds
CATACACATACACGTTTGAAGCGGTCAAAGCTGCAAATTCTCGTTTCTCTT (double strand) [MaPE1 W-box probe] | – | – | – | binding result [3]: binds; binding result [4]: binds

Construct, isoform or probe ends are uncertain for at least one entry. For some assays here: Negatives hold for the conditions tested. For some assays here: At least one verdict rests on a figure or table, not on a statement of the authors. For some assays here: Weaker means in comparison with the reference protein, sequence or condition of that experiment.
